The results in this text go back to publication PMC4707779.

By UniProt entry, the sequences of proteins in these tests, tags left out.
UniProt Q13616: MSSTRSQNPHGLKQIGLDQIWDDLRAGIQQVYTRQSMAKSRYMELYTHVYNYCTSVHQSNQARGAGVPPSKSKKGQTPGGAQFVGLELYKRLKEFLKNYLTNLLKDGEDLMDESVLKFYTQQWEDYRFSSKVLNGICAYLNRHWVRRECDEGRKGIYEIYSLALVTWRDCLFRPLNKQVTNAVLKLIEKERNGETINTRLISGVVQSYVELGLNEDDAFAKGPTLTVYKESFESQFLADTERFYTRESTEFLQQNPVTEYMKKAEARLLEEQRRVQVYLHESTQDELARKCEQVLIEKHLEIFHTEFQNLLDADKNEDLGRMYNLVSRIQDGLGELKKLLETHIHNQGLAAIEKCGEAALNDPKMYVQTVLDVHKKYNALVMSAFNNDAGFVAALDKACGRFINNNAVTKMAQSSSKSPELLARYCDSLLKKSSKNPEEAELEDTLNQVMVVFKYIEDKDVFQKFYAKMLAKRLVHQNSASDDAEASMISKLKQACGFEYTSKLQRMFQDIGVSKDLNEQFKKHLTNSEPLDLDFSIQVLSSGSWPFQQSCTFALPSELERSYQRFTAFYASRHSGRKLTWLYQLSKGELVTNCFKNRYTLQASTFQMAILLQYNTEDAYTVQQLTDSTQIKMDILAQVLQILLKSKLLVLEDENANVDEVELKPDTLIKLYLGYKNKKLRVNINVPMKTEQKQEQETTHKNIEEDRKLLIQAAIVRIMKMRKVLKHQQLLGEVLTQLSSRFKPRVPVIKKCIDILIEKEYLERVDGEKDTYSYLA
UniProt P63208: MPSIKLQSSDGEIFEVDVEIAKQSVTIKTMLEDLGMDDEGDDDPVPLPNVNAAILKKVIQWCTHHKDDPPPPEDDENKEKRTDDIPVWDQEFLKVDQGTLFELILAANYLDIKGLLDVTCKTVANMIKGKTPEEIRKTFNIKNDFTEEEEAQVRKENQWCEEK

No constants are given. Whether binding was seen depends on the method and setting. In cells and extracts the contact can be indirect. Some entries that bind do so weakly or less than the wild type. For part of these data: Sequences can lack the tags named with a protein.

For experiment [1], the target named is T1, WT FBXO32 carrying a Flag epitope (human) (UniProt Q969P5).
T1 sequence: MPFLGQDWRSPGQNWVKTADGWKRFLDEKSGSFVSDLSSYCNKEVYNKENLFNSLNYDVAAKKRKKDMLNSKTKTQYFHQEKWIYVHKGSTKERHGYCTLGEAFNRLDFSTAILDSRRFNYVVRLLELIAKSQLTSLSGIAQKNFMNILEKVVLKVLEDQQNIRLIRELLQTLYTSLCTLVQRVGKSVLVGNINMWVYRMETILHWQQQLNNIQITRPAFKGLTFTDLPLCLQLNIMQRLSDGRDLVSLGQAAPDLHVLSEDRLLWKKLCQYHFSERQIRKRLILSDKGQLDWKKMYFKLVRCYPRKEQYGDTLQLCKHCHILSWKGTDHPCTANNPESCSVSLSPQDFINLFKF
As to the kind of experiment: co-IP; HEK293 cells co-transfected with Flag-FBXO32 (WT or G243R), GFP-SKP1, myc-CUL1 and HA-ROC1; 400-700 ug of total cell lysate on Flag resins, 2 h at 4 °C; immunoblotting.

For experiment [2], the target named is T2, FBXO32 of control hearts and hearts of patients with idiopathic dilated cardiomyopathy (human (endogenous in heart tissue)) (UniProt Q969P5).
T2 sequence: T1 sequence
The experiment is described as follows: co-IP; protein extracts of human left ventricle (control, IDC, patients IV.5 and IV.7); immunoprecipitation with primary antibody or control IgG, immunoblotting; the precipitating antibody is not named. In general terms: In western blotting, separated proteins are transferred to a membrane and probed.

Another experiment has as its target myc-CUL1 (UniProt Q13616). As to the kind of experiment: co-IP; HEK293 cells co-transfected with WT or mutant FBXO32 and CUL1, ROC1 and SKP1; CUL1 absorbed on c-Myc-beads, 2 h at 4 °C; immunoblotting.

Consider GFP-SKP1 (from UniProt P63208 1-163), for which the binding result in experiment [1] is reported as “binds”.
As for “SKP1 of human heart tissue (from UniProt P63208 1-163)”, the binding entry in experiment [2] is “binds”.

B1: WT FBXO32 carrying a Flag epitope (protein, UniProt Q969P5-1 1-355)
chain: T1 sequence
Consider B1, for which the binding result with myc-CUL1 is recorded as “binds”.
